Measured values taken from PubChem BioAssay AID1487 (National Center for Advancing Translational Sciences (NCATS), 2009).
The list shows a part of the results. The main result of the screen is listed elsewhere. These columns were measured beside it and carry no call. The list favours compounds with an active or inconclusive main result. Potencies come from curve fits of mixed quality, noted in brackets.

Assay: qHTS Assay for Modulators of Lamin A Splicing
Settings: HeLa LMNA splicing GFP/RFP minigene ratio, 48 h
Method in brief: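 S3 HeLa cells stably expressing lamin A-EGFP splicing minigene plus DsRed2, 600 cells/well, 48 h compound exposure at 37C. Laser-scanning cytometry; analysed as GFP (500-530 nm)/RFP (575-640 nm) total intensity ratio; 0.5% DMSO vehicle.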

[1] = measured here: GFP splicing reporter channel
[2] = measured here: RFP viability control channel

SMILES	AC50 [1]	AC50 [2]
CCOC(=O)c1oc2ccc(Br)cc2c1CSc1nnc(C)s1	12.6 µM [rising, single point]	14.1 µM [rising, single point]
O=C(CN1C(=O)S/C(=C\c2ccc(Cl)cc2)C1=O)NNC(=O)c1ccccc1O	35.5 µM [rising, single point]	35.5 µM [rising, single point]
O=C(COc1ccccc1)OCc1cc(=O)n2nc(C3CC3)sc2n1	–	0.0355 µM [falling, full curve, poor fit]
O=C(N/N=C/c1ccccn1)c1c[nH]c2ccccc12	25.1 µM [falling, single point]	0.00355 µM [falling, full curve, poor fit]
CCC1CN(C(=O)N2CCC(C(=O)NCc3cccc(OC)c3OC)CC2)c2cc(C)ccc2O1 (stereo unspecified)	–	12.6 µM [rising, single point]
O=C(Nc1cccc(Cl)c1)Nc1cc(S(=O)(=O)N2CCOCC2)ccc1N1CCCC1	20 µM [rising, single point]	20 µM [rising, partial curve]
COc1ccc(C(=O)NNC(=O)CN2CCN(c3nc(-c4ccccc4)cs3)CC2)cc1	–	31.6 µM [rising, single point]
CC1CCN(S(=O)(=O)c2cccc(C(=O)Nc3nccs3)c2)CC1	28.2 µM [rising, single point]	22.4 µM [rising, single point]
Cc1cc(OCC(=O)Nc2ccncc2)ccc1[N+](=O)[O-]	–	35.5 µM [rising, single point]
C=CCn1c(N2CCCCCC2)nc2c1c(=O)n(C)c(=O)n2C	12.6 µM [rising, single point]	17.8 µM [rising, single point]
Fc1ccc(Br)cc1C1C=C(c2cccnc2)Nc2ncnn21 (stereo unspecified)	–	14.1 µM [rising, partial curve]
Cc1ccccc1NC(=O)CSc1nc2ccc(NC(=O)c3cccs3)cc2s1	35.5 µM [falling, single point]	35.5 µM [falling, single point]
Oc1[nH]c2ccccc2c1N=Nc1ccccc1	3.16 µM [falling, partial curve]	7.94 µM [falling, partial curve]
CN1CCN(/N=C/c2ccc(N(c3ccccc3)c3ccccc3)cc2)CC1	35.5 µM [falling, single point]	3.16 µM [falling, single point]
CCOc1ccc(S(=O)(=O)Nc2cccc(-c3ccc(OCC)nn3)c2)cc1	0.00891 µM [falling, full curve]	0.00631 µM [falling, full curve, poor fit]
Cc1cccc(NC(=O)COC(=O)CCCC2=NS(=O)(=O)c3ccccc3N2)c1	–	0.02 µM [falling, full curve]
O=C(Nc1ccc(S(=O)(=O)N2CCCCC2c2cccnc2)cc1)c1ccc(Br)cc1 (stereo unspecified)	0.355 µM [falling, full curve]	–
COc1ccccc1N1CCN(CC(O)COc2ccc(S(=O)(=O)N3CCOCC3)cc2)CC1 (stereo unspecified)	–	0.794 µM [rising, partial curve, poor fit]
Cc1ccc(-n2cc(C(=O)Oc3cccc(C)c3)c3ccccc3c2=O)cc1	35.5 µM [rising, single point]	–
Cc1c(C(=O)C(=O)NCCC2=CCCCC2)c2ccccc2n1C	28.2 µM [rising, single point]	28.2 µM [rising, single point]
O=C(Nc1ccc2c(c1)C(=O)NC2=O)c1ccc2ncsc2c1	0.0631 µM [falling, full curve, poor fit]	35.5 µM [falling, single point]
COC(=O)C(C(C)=O)C1c2ccccc2C=C(C)N1C(=O)OC (stereo unspecified)	–	0.631 µM [falling, full curve, poor fit]
CC(C)(C)OC(=O)N1CCC(c2c(C(=O)NC3CCN(Cc4ccccc4)CC3)cnn2-c2ccc(F)cc2F)CC1	20 µM [falling, single point]	0.0631 µM [falling, full curve, poor fit]
COc1ccc(Br)cc1/C=N/NC(=O)CNC(=O)/C=C/c1ccccc1	–	5.62 µM [rising, single point]
COc1cc(-c2nc3ccc4ccccc4c3c3c2CCC3)ccc1O	–	7.94 µM [rising, partial curve]
Cc1ccc(NC(=O)COC(=O)C(NS(=O)(=O)c2ccc(Cl)cc2)C(C)O)cc1C (stereo unspecified)	–	35.5 µM [rising, single point]
Cc1ccc(-c2noc(CCC(=O)N3CCCc4ccccc43)n2)cc1	–	14.1 µM [rising, single point]

SMILES	AC50 [1]	AC50 [2]
O=C(Nc1nc(-c2ccncc2)cs1)C1c2ccccc2Oc2ccccc21	12.6 µM [rising, partial curve]	17.8 µM [rising, single point]
OCCC1CN(Cc2c(O)ccc3ccccc23)CCN1CCc1ccccc1 (stereo unspecified)	15.8 µM [falling, single point]	–
COc1ccc(Nc2nnc(-c3ccc(O)cc3)c3ccccc23)cc1	35.5 µM [rising, partial curve, poor fit]	35.5 µM [rising, partial curve, poor fit]
O=S(=O)(Nc1nnc(-c2ccccc2)s1)c1ccc(Cl)cc1	11.2 µM [rising, partial curve]	14.1 µM [rising, single point]
COc1cc(/C=N/Nc2nc3ccccc3[nH]2)cc(Br)c1OCC(=O)N(C)C	20 µM [falling, partial curve, poor fit]	–
C=CCC1(NCc2ccco2)CCN(CC)CC1	–	0.562 µM [falling, full curve, poor fit]
Cc1ccc(C(C)C)c(OC(=O)/C=C/c2ccccc2)c1	–	35.5 µM [rising, single point]
CC(=O)c1c(Nc2ccccc2)sc(C(=O)c2ccccc2)c1C	12.6 µM [rising, single point]	25.1 µM [rising, single point]
COc1ccc(N=Cc2cc3c(cc2O)OC(N)=C(C#N)C3c2ccccc2)cc1 (stereo unspecified)	–	3.16 µM [falling, single point]
NC(=O)CCCc1nc(-c2ccccc2Cl)no1	0.631 µM [falling, partial curve]	–
O=C(Nc1ccccc1)c1cccc(C(F)(F)F)c1	7.08 µM [rising, partial curve, poor fit]	7.08 µM [rising, full curve]
OCCC1CN(Cc2cnn(-c3ccc(F)cc3)c2)CCN1Cc1ccsc1 (stereo unspecified)	–	0.00316 µM [falling, full curve, poor fit]
CC(O)CNC(=O)C(=O)Nc1c2c(nn1-c1ccc(Cl)cc1)CSC2 (stereo unspecified)	0.00447 µM [falling, full curve, poor fit]	–
CN[C@@H]1[C@H](O[C@H]2[C@@H](O[C@@H]3[C@@H](O)[C@@H](O)[C@@H](N=C(N)N)[C@@H](O)[C@@H]3N=C(N)N)O[C@@H](C)[C@]2(O)CO)O[C@H](CO)[C@@H](O)[C@@H]1O	0.316 µM [falling, full curve]	0.398 µM [falling, full curve]
COc1cccc(Nc2ncc3nc(-c4cn(C)c5ccccc45)c(=O)n(C[C@H]4CCCO4)c3n2)c1	1.78 µM [falling, partial curve]	–
S=C(Nc1ccccc1)N1CCn2c1nc1ccccc12	35.5 µM [rising, single point]	–
Brc1ccc(OCc2nnnn2-c2ccccc2)cc1	–	3.55 µM [rising, single point]
O=C(CN(CCO)c1ccccc1)NC12CC3CC(CC(C3)C1)C2	8.91 µM [rising, partial curve]	–
O=C(NCCOc1ccccc1Cl)C(=O)NCCOc1ccccc1Cl	0.631 µM [rising, partial curve, poor fit]	–
Cc1cc(C)n(CC(C)NCc2cn[nH]c2-c2cccc3ccccc23)n1 (stereo unspecified)	22.4 µM [falling, partial curve, poor fit]	11.2 µM [falling, partial curve, poor fit]
COc1ccc(SCC(=O)c2cc(C)c(OC(=S)N(C)C)c(C)c2)cc1	–	35.5 µM [rising, single point]
Cc1ccc(C(C)C)c(OCC(=O)NCC2(N3CCOCC3)CCCCC2)c1	20 µM [falling, partial curve, poor fit]	14.1 µM [falling, partial curve, poor fit]
CC1CN(C(=O)c2cccc(COc3ccc(Br)cc3)c2)CC(C)O1 (stereo unspecified)	28.2 µM [rising, partial curve]	35.5 µM [rising, single point]
CC(C)(C)n1ncc2c(=O)n(CC(=O)Nc3ccc(Cl)cc3)cnc21	2.82 µM [rising, single point]	–
O=C(NCc1ccc2c(c1)OCO2)c1ccc(CSCc2ccccc2Cl)o1	–	10 µM [rising, partial curve, poor fit]
Cn1ccc2cc(S(=O)(=O)N3CCCC(C(=O)NCc4ccc(F)cc4)C3)ccc21 (stereo unspecified)	11.2 µM [falling, partial curve, poor fit]	35.5 µM [falling, single point]

Some of the entries so far, as labelled records.
NC(=O)CCCc1nc(-c2ccccc2Cl)no1
  AC50 [1]: 0.631 µM [falling, partial curve]
O=C(Nc1ccccc1)c1cccc(C(F)(F)F)c1
  AC50 [1]: 7.08 µM [rising, partial curve, poor fit]
  AC50 [2]: 7.08 µM [rising, full curve]
OCCC1CN(Cc2cnn(-c3ccc(F)cc3)c2)CCN1Cc1ccsc1 (stereo unspecified)
  AC50 [2]: 0.00316 µM [falling, full curve, poor fit]
